The experiment deals with T1, human MMRN1 N-terminal EMI-Myc-His6 (first 290 amino acids of Multimerin-1, wild type) (human) (UniProt Q13201).
T1 sequence: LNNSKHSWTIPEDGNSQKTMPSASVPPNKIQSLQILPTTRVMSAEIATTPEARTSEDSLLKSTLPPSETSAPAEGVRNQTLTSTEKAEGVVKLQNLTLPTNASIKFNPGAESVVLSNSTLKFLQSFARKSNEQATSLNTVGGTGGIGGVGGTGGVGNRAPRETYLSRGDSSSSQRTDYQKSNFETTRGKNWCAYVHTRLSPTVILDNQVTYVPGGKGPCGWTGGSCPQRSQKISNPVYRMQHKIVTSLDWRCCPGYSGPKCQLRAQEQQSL
Put plainly: co-IP; HEK293 cells co-transfected with EMI-Myc and FUT plasmids, 24 h; lysis in 1% Igepal CA-630, 50 mM Tris-HCl pH 7.4, 150 mM NaCl, 5% glycerol, 1 mM MgCl2; anti-c-Myc (9E10) magnetic beads, 4 °C, 2 h; eluted proteins digested and quantified by LC-MS/MS (label-free quantification, MaxQuant), n = 3.

Results are given in words; binding and its absence hold for the method and conditions named. In cells and extracts the contact can be indirect. Some binding calls cover weakened binding; strength is not graded here. Tags and fused reporters may be left off the sequences shown.

B1: full-length FUT11-FLAG (enzyme, UniProt Q495W5 1-492)
chain: MAAGPIRVVLVLLGVLSVCAASGHGSVAEREAGGEAEWAEPWDGAVFRPPSALGAVGVTRSSGTPRPGREEAGDLPVLLWWSPGLFPHFPGDSERIECARGACVASRNRRALRDSRTRALLFYGTDFRASAAPLPRLAHQSWALLHEESPLNNFLLSHGPGIRLFNLTSTFSRHSDYPLSLQWLPGTAYLRRPVPPPMERAEWRRRGYAPLLYLQSHCDVPADRDRYVRELMRHIPVDSYGKCLQNRELPTARLQDTATATTEDPELLAFLSRYKFHLALENAICNDYMTEKLWRPMHLGAVPVYRGSPSVRDWMPNNHSVILIDDFESPQKLAEFIDFLDKNDEEYMKYLAYKQPGGITNQFLLDSLKHREWGVNDPLLPNYLNGFECFVCDYELARLDAEKAHAASPGDSPVFEPHIAQPSHMDCPVPTPGFGNVEEIPENDSWKEMWLQDYWQGLDQGEALTAMIHNNETEQTKFWDYLHEIFMKRQHL
For B1, the binding entry was “binds”.

(Values after publication PMC11949838, “FUT10 and FUT11 are protein O-fucosyltransferases that modify protein EMI domains” (Nature Chemical Biology, 2025).)
